The results in this text go back to US20050266088A1, “Formulation for fast dissolution of lipophilic compounds” (Rijksuniversiteit Groningen, priority 2002, published 2005).

The nature of this series: Dissolution experiments on tablets (Prolabo dissolution apparatus). It counts as physicochemical. On the procedure:
After compaction the tablets were weighed and subsequently submitted to dissolution experiments.
Dissolution was performed on a Prolabo dissolution apparatus, Rowa Techniek B.V. All experiments were conducted at 37° C. in 1000 mL under constant stirring with 100 rpm. Tablets prepared from physical mixtures and solid dispersions were analysed in triplicate.
To determine the sugar concentrations the Anthrone assay was used. (Scott et al. 1953) Samples were taken at appropriate intervals during the dissolution. […] Due to the enthalpy of mixing, the sample was heated to its boiling point. The boiling mixture was then cooled to room temperature. After 45 minutes the sample was vortexed and […] of sample was analysed in the plate reader at 630 nm. […] In every Anthrone assay a calibration curve of the appropriate sugar in the appropriate medium was established.

Take `CN1C(=O)CN=C(c2ccccc2)c2cc(Cl)ccc21` [diazepam, Diazepam]: the “dissolution of drug from physical mixture tablets” value is listed as “dissolved slower”.
